{"sequences": {"note": "By UniProt entry, the sequences of proteins in these tests, tags left out.", "UniProt Q5A960": "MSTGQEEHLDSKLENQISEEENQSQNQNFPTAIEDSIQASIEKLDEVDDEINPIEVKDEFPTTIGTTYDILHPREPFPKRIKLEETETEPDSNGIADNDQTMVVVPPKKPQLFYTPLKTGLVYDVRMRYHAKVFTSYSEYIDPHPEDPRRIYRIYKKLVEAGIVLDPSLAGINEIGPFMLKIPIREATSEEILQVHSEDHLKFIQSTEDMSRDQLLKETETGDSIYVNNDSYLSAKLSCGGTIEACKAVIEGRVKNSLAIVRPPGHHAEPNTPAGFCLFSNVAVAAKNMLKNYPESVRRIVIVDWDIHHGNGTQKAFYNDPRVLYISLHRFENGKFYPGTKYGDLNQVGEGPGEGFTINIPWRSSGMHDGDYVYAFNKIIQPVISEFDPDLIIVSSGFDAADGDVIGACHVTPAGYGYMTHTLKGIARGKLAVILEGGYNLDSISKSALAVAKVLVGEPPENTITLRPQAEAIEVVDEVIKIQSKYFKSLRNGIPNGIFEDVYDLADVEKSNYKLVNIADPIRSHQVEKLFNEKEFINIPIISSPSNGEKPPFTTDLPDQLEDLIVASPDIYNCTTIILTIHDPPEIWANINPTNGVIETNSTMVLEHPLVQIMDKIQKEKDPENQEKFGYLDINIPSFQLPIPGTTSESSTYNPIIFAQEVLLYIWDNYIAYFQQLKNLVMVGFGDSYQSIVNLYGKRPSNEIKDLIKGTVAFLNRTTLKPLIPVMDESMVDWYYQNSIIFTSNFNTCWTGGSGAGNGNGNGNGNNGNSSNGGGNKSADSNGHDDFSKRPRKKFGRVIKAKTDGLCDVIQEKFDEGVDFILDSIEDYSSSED", "UniProt Q59LY1": "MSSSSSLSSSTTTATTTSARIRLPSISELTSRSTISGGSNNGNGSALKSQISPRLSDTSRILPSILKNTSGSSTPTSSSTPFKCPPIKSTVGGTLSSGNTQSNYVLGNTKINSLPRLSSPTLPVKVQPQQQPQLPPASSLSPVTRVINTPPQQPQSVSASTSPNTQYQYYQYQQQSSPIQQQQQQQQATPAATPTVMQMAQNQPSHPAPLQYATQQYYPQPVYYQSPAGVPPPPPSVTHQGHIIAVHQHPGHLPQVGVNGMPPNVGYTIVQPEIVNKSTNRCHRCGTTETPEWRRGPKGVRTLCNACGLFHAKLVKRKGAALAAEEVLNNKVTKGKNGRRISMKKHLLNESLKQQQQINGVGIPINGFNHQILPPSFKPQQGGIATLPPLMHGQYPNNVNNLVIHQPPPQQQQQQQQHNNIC"}, "source": "paper PMC3334898", "target": "Hda1-TAP (Candida albicans) (UniProt Q5A960)", "assay": "co-IP; lysates (10 mg protein) of C. albicans expressing Myc-Brg1 and Hda1-TAP, precipitated with IgG agarose beads, blot with anti-c-Myc; cells grown in YEPMaltose at 25°C or 37°C with or without 10 nM rapamycin", "note": "Results are given in words; binding and its absence hold for the method and conditions named. In cells and extracts the contact can be indirect. Some results given as binding are weak or reduced against the parent protein; the word gives no strength.", "data": [{"substance": "Myc-Brg1 (from UniProt Q59LY1 1-422)", "values": [{"measurement": "binding", "value": "binds"}]}]}
